Laboratory results taken from the supplement of paper PMC4604168 (melanoma cell lines).
This is one part of the list. Many values rest on one well or one pass, so single values are uncertain.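 The apoptosis fraction was the count of cleaved-PARP antibody-stained nuclei relative to all DNA-stained nuclei, imaged in 1,536-well plates. Screening doses were set so most cells survived, and baseline and induced cleaved-PARP levels vary greatly across cell lines.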

Assays:
Assay in all cases: cleaved PARP positive nuclei fraction relative to DMSO control; melanoma cells; higher = more apoptosis
Settings in all cases: library dose: low library concentration; 72 h
501Mel = tested on: 501Mel
A101D = tested on: A101D
A2058 = tested on: A2058
A375 = tested on: A375
C32 = tested on: C32
CBRC008 = tested on: CBRC008 (line from a melanoma biopsy)
CBRC014 = tested on: CBRC014 (line from a melanoma biopsy)
CBRC016 = tested on: CBRC016 (line from a melanoma biopsy)
CBRC017 = tested on: CBRC017 (line from a melanoma biopsy)
CBRC034 = tested on: CBRC034 (line from a melanoma biopsy)
COLO792 = tested on: COLO792
COLO800 = tested on: COLO800
COLO829 = tested on: COLO829
G361 = tested on: G361
IPC-298 = tested on: IPC-298
IST-MEL1 = tested on: IST-MEL1
LB2518-MEL = tested on: LB2518-MEL
LOXIMVI = tested on: LOXIMVI
MEL-HO = tested on: MEL-HO

Row | SMILES | cleaved PARP positive nuclei fraction (501Mel) | cleaved PARP positive nuclei fraction (A101D) | cleaved PARP positive nuclei fraction (A2058) | cleaved PARP positive nuclei fraction (A375) | cleaved PARP positive nuclei fraction (C32) | cleaved PARP positive nuclei fraction (CBRC008) | cleaved PARP positive nuclei fraction (CBRC014) | cleaved PARP positive nuclei fraction (CBRC016) | cleaved PARP positive nuclei fraction (CBRC017) | cleaved PARP positive nuclei fraction (CBRC034) | cleaved PARP positive nuclei fraction (COLO792) | cleaved PARP positive nuclei fraction (COLO800) | cleaved PARP positive nuclei fraction (COLO829) | cleaved PARP positive nuclei fraction (G361) | cleaved PARP positive nuclei fraction (IPC-298) | cleaved PARP positive nuclei fraction (IST-MEL1) | cleaved PARP positive nuclei fraction (LB2518-MEL) | cleaved PARP positive nuclei fraction (LOXIMVI) | cleaved PARP positive nuclei fraction (MEL-HO)
1 | N#CC[C@H](C1CCCC1)n1cc(-c2ncnc3[nH]ccc23)cn1 [ruxolitinib] + CN(c1ncccc1CNc1nc(Nc2ccc3c(c2)CC(=O)N3)ncc1C(F)(F)F)S(C)(=O)=O [PF562271] (first compound 1 µM, partner dose 0.08 µM) | 95.9% | 54.5% | 74.9% | 146% | 84.6% | 56.7% | 97.2% | 138% | 107% | 118% | 113% | 67% | 74.5% | 127% | 253% | 65.6% | 82.4% | 43% | 47.3%
2 | O=C(/C=C/c1cccnc1)NCCCCC1CCN(C(=O)c2ccccc2)CC1 + C[C@@H](Oc1cc(-c2cnn(C3CCNCC3)c2)cnc1N)c1c(Cl)ccc(F)c1Cl [Crizotinib] (first compound 0.01 µM, partner dose 0.2 µM) | 85.1% | 44% | 47.1% | 98.8% | 137% | 7390% | 104% | 1670% | 514% | 885% | 484% | 284% | 178% | 5280% | 234% | 108% | 53.9% | 24.9% | 151%
3 | O=C(/C=C/c1cccnc1)NCCCCC1CCN(C(=O)c2ccccc2)CC1 + CCCS(=O)(=O)Nc1ccc(F)c(C(=O)c2c[nH]c3ncc(Cl)cc23)c1F [PLX4720] (first compound 0.01 µM, partner dose 0.08 µM) | 50.7% | 117% | 55.3% | 89.1% | 122% | 3250% | 116% | 1920% | 829% | 871% | 470% | 247% | 180% | 3000% | 491% | 135% | 167% | 120% | 56.9%
4 | Cc1cn(-c2cc(NC(=O)c3ccc(C)c(Nc4nccc(-c5cccnc5)n4)c3)cc(C(F)(F)F)c2)cn1 [nilotinib] + C=C(c1ccc(C(=O)O)cc1)c1cc2c(cc1C)C(C)(C)CCC2(C)C [Bexarotene] (first compound 0.2 µM, partner dose 2 µM) | 367% | 136% | 52% | 63.3% | 296% | 79.8% | 99.5% | 48.6% | 135% | 40.5% | 64.6% | 112% | 108% | 171% | 43.2% | 136% | 162% | 120% | 247%
5 | O=C(/C=C/c1cccnc1)NCCCCC1CCN(C(=O)c2ccccc2)CC1 + COc1ccc(C2=N[C@@H](c3ccc(Cl)cc3)[C@@H](c3ccc(Cl)cc3)N2C(=O)N2CCNC(=O)C2)c(OC(C)C)c1 [Nutlin-3] (first compound 0.01 µM, partner dose 0.1 µM) | 63.7% | 139% | 60% | 59.3% | 214% | 2080% | 114% | 402% | 774% | 1120% | 612% | 179% | 95.2% | 3570% | 233% | 83.9% | 121% | 55% | 322%
6 | Cc1cc(Nc2cc(N3CCN(C)CC3)nc(Sc3ccc(NC(=O)C4CC4)cc3)n2)n[nH]1 [Tozasertib] + CC(=O)c1c(C)c2cnc(Nc3ccc(N4CCNCC4)cn3)nc2n(C2CCCC2)c1=O [palbociclib] (first compound 0.006 µM, partner dose 0.04 µM) | 100% | 337% | 86.4% | 437% | 201% | 33.7% | 113% | 21.4% | 116% | 121% | 75.8% | 116% | 59.9% | 70.5% | 95.9% | 67.1% | 70.6% | 52.7% | 200%
